Test results: US20180236024A1

Assays:
[1] = target: ΔLRR NOD2; assay: co-IP of Flag-NOD2 variants with GFP-IRGM
[2] = target: AMPK; assay: co-immunoprecipitation, HEK293T cells expressing GFP-IRGM
[3] = target: ΔCARD NOD2; assay: Flag pull-down, affinity purified Flag-NOD2 variants and purified GST-IRGM
[4] = target: ΔLRR NOD2; assay: as above
[5] = target: AMPK; assay: co-IP of GFP-TRIM20 complexes, HEK293T cells

binding [1]: binds
binding [2]: no binding
B1: IRGM (human IRGM, isoform d) (protein, UniProt A1A4Y4-4 1-202, looked up)
chain: MEAMNVEKASADGNLPEVISNIKETLKIVSRTPVNITMAGDSGNGMSTFISALRNTGHEGKASPPTELVKATQRCASYFSSHFSNVVLWDLPGTGSATTTLENYLMEMQFNRYDFIMVASAQFSMNHVMLAKTAEDMGKKFYIVWTKLDMDLSTGALPEVQLLQIRENVLENLQKERLACHEKYLKSTPENSTRPRNINLCS

binding [3]: no binding
binding [4]: binds
B2: purified recombinant GST-IRGM (GST-IRGMd), prepared from insect cells (protein, human, UniProt A1A4Y4-4 1-202, looked up, not shown: a dimerising Fc or GST)
chain: MEAMNVEKASADGNLPEVISNIKETLKIVSRTPVNITMAGDSGNGMSTFISALRNTGHEGKASPPTELVKATQRCASYFSSHFSNVVLWDLPGTGSATTTLENYLMEMQFNRYDFIMVASAQFSMNHVMLAKTAEDMGKKFYIVWTKLDMDLSTGALPEVQLLQIRENVLENLQKERLACHEKYLKSTPENSTRPRNINLCS

binding [5]: binds
B3: GFP-TRIM20 (full-length human TRIM20) (protein, not shown: large carriers)
chain: MAKTPSDHLLSTLEELVPYDFEKFKFKLQNTSVQKEHSRIPRSQIQRARPVKMATLLVTYYGEEYAVQLTLQVLRAINQRLLAEELHRAAIQEYSTQENGTDDSAASSSLGENKPRSLKTPDHPEGNEGNGPRPYGGGAASLRCSQPEAGRGLSRKPLSKRREKASEGLDAQGKPRTRSPALPGGRSPGPCRALEGGQAEVRLRRNASSAGRLQGLAGGAPGQKECRPFEVYLPSGKMRPRSLEVTISTGEKAPANPEILLTLEEKTAANLDSATEPRARPTPDGGASADLKEGPGNPEHSVTGRPPDTAASPRCHAQEGDPVDGTCVRDSCSFPEAVSGHPQASGSRSPGCPRCQDSHERKSPGSLSPQPLPQCKRHLKQVQLLFCEDHDEPICLICSLSQEHQGHRVRPIEEVALEHKKKIQKQLEHLKKLRKSGEEQRSYGEEKAVSFLKQTEALKQRVQRKLEQVYYFLEQQEHFFVASLEDVGQMVGQIRKAYDTRVSQDIALLDALIGELEAKECQSEWELLQDIGDILHRAKTVPVPEKWTTPQEIKQKIQLLHQKSEFVEKSTKYFSETLRSEMEMFNVPELIGAQAHAVNVILDAETAYPNLIFSDDLKSVRLGNKWERLPDGPQRFDSCIIVLGSPSFLSGRRYWEVEVGDKTAWILGACKTSISRKGNMTLSPENGYWVVIMMKENEYQASSVPPTRLLIKEPPKRVGIFVDYRVGSISFYNVTARSHIYTFASCSFSGPLQPIFSPGTRDGGKNTAPLTICPVGGQGPD

No constants are given. Whether binding was seen depends on the method and setting. For some assays here: In cells and extracts the contact can be indirect. For some assays here: Binding calls can cover weak binding; strength is not graded here. For some assays here: Sequences can lack the tags named with a protein. One block for each binder: values may come before it.
